Results deposited as PubChem BioAssay AID504784 (Drosophila RNAi Screening Center, 2011)
In all, the deposit lists about 17,000 reagents; shown is an unselected part of those that have a named target and a result. 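Each column is one replicate's B-score; the combined score over replicates was not deposited, so single values may mislead.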 Names joined by + are all predicted targets of the reagent. No sequences are given here.

- Test: 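Search for regulators of lipid droplet storage in oleate-fed fly cells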 (primary screen)
- System: Drosophila Kc167 embryonic cells
- Reagents: long dsRNA against Drosophila genes, about 250 ng dsRNA per well
- Time to read-out: 4 days
- Treatment: cells fed 400 µM oleic acid bound to BSA
- Read-out: 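Cells imaged and segmented; ratio of lipid droplet area to nuclear area, log-transformed, then normalised as a B-score over the screen; higher means more stored lipid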
- Reading the numbers: droplet/nuclear area B-score: higher = more stored lipid (overstorage)

Target gene	amplicon	droplet/nuclear area B-score, replicate 1	droplet/nuclear area B-score, replicate 2	droplet/nuclear area B-score, replicate 3
CG9467	DRSC16498	-0.0364	7.49	
gfzf	DRSC12506	0.00729	0.289	
gfzf	DRSC21874	-0.332	-0.485	
CG10943	DRSC09805	-1.1	0.354	
Tlk	DRSC17731	1.16	0.187	
Tlk	DRSC17835	-0.126		
Tlk	DRSC22924	-4.16	-2.95	
Tlk	DRSC22926	-3.66	-0.0238	
Tlk	DRSC22938	0.506	-0.967	
Tlk	DRSC23163	-1.15	-1.44	
CG13725	DRSC10054	-0.962	1.34	
Membrin	DRSC10448	-0.718	0.0991	
CG6276	DRSC16007	0.921	-4.81	
CG2938	DRSC18243	1.05	0.688	
CG17575	DRSC06682	0.077	-1.32	
Jon66Ci	DRSC10772	-0.554	-0.132	
CG17636	DRSC20648	-0.256	1.09	
CG14414	DRSC19599	-0.019	0.552	
tst	DRSC14212	0.352	-0.0283	
PolQ	DRSC17006	0.239	2.72	
Elovl7	DRSC15452	0.375	0.714	
Elovl7	DRSC21570	0.127	-0.138	
ari-2	DRSC04672	0.212	-1.43	
Rbp	DRSC15724	3.81	2.89	
Rbp	DRSC15726	3.9	1.73	
CG12531	DRSC19466	-2.08	-0.26	
Rtca	DRSC18517	-0.769	-0.688	
Sln	DRSC07133	-0.157	-0.889	
BBS8	DRSC00360	0.658	1.76	
rad50	DRSC04523	-0.196	0.855	
Hsp70Bb + Hsp70Bbb	DRSC15885	-0.256	-0.0901	1.18
CG32591	DRSC19063	-0.635	0.0478	
CG4829	DRSC19920	-0.086	-0.271	
CG34047 (retired record)	DRSC07857	-1.01	-0.47	
CG34047 (retired record)	DRSC21689	-0.00121	-0.023	
CG7768	DRSC10914	0.76	-0.325	-0.103
Grd	DRSC11178	-0.602	-0.223	
CG2887	DRSC18235	1.08	-0.392	1.21
Men-b	DRSC16736	1.11	1.41	
CG31099	DRSC14252	0.329	0.85	
CG17687	DRSC10279	1.13	1.09	
Ccdc114	DRSC15025	1.14	2.57	
eIF2Bbeta	DRSC18465	1.24	-0.179	
CG9806	DRSC18444	0.0346	0.319	-0.143
CG6766	DRSC02991	0.256	1.97	-0.301
CG11898	DRSC14432	-3.85	0.688	-0.986
RecQ4	DRSC11265	-0.469	1.47	
scaf6	DRSC10075	-0.721	0.799	-1.26
scaf6	DRSC10676	-0.502	-0.457	
scaf6	DRSC10678	1.41	-0.356	
Or98a	DRSC16774	0.898	0.0688	
CG15071	DRSC06504	-2.28	-1.04	
CG7886	DRSC16333	0.402	0.0251	
Dgk	DRSC05064	-2.63	-1.33	
Dgk	DRSC05065	-0.332	-0.061	
Dgk	DRSC06171	-0.96	-3.67	
Dgk	DRSC06782	-0.111	-0.379	-0.202
Dgk	DRSC22236	0.377	-6.8	
CG2889	DRSC18236	-0.281	-0.393	0.841
CG15107	DRSC06534	-1.89		
ATbp	DRSC20906	0.74	1.71	
CSN8	DRSC02257	-3.15	-0.792	
CG14563	DRSC11724	1	1.66	
CG13501	DRSC04146	-0.93	0.712	
HIPP1	DRSC11748	2.48	-0.0868	-2.81
CG31875	DRSC21975	5.02	-2	
CG11454	DRSC00310	-1.25	-0.696	
CG7685	DRSC16285	-0.0242	0.223	
CG17597	DRSC02630	0.0481	-2.59	
CG3223	DRSC15468	-0.87	0.0245	
CG31121	DRSC15361	-0.54	0.635	
CG31121	DRSC15363	1.91	-1.85	
RpS12	DRSC11270	5.95	-0.796	
CG3552	DRSC10370	0.255	-0.0512	
Cyp4g1	DRSC18459	0.177		
ush	DRSC00843	-1.05	2.06	
cact	DRSC03501	-1.49	-0.275	
Pgant35A	DRSC03557	0.753	-0.435	0.185
CG2816	DRSC00539	-1.19	-0.37	
CG2616	DRSC15440	-1.48	0.504	
CG13243	DRSC01920	-1.21	0.951	
E(z)	DRSC11147	1.72	0.00575	
mgr	DRSC16099	0.0703	0.0157	
CG3587	DRSC18541	0.313	-1.02	-3.43
CG3587	DRSC21966	0.201	0.487	
DCTN5-p25	DRSC03525	0.42	1.3	
Herp	DRSC02394	0.441	-0.296	
ine	DRSC00822	-0.806	-0.394	
ninaG	DRSC16102	-0.109	-0.013	
CG7031	DRSC16178	-0.878	0.287	
CG7031	DRSC23028	-0.546	-0.0923	
CG17929	DRSC15291	2.34	0.0999	
phtm	DRSC20237	0.47	-0.355	
Cyp18a1	DRSC20235	0.608	0.326	
thw	DRSC12552	1.98	-0.039	
CG6602	DRSC10673	-0.507	-1.34	
CG11594	DRSC08207	-2.07	0.307	
Gmap	DRSC19988	-0.804	0.359	-0.8
Gmap	DRSC20057	-1.16	-0.84	
Pus10	DRSC00629	-0.113	-1.02	
CG11975	DRSC14452	-0.544	0.894	
Zaf1	DRSC16121	0.175	3.51	
CG33467	DRSC05525	-0.658	0.154	
CG33467	DRSC22651	0.67	0.536	
TM4SF	DRSC04661	1.39	-0.0974	
